# Publication PMC2989921
# Target: adenovirus E4 open reading frame 4 (E4orf4) protein (adenovirus (serotype not given))
# Test: co-IP; E4orf4 immunoprecipitated from extracts of ynd1Δ yeast cells co-expressing the Ynd1 constructs; lysis and IP buffer 250 mM NaCl, 50 mM Tris-HCl pH 7.4, 5 mM EDTA, 0.5% Nonidet P-40, 0.1% Triton X-100; immune complexes and input (10% of IP) analysed by Western blot
row,Binder,binding
1,"WT Ynd1 (Golgi apyrase Ynd1), Myc- and HA-tagged (protein, UniProt P40009 1-630) MLIENTNDRFGIVIDAGSSGSRIHVFKWQDTESLLHATNQDSQSILQSVPHIHQEKDWTFKLNPGLSSFEKKPQDAYKSHIKPLLDFAKNIIPESHWSSCPVFIQATAGMRLLPQDIQSSILDGLCQGLKHPAEFLVEDCSAQIQVIDGETEGLYGWLGLNYLYGHFNDYNPEVSDHFTFGFMDMGGASTQIAFAPHDSGEIARHRDDIATIFLRSVNGDLQKWDVFVSTWLGFGANQARRRYLAQLINTLPENTNDYENDDFSTRNLNDPCMPRGSSTDFEFKDTIFHIAGSGNYEQCTKSIYPLLLKNMPCDDEPCLFNGVHAPRIDFANDKFIGTSEYWYTANDVFKLGGEYNFDKFSKSLREFCNSNWTQILANSDKGVYNSIPENFLKDACFKGNWVLNILHEGFDMPRIDVDAENVNDRPLFQSVEKVEERELSWTLGRILLYASGSILAGNDDFMVGIAPSERRTKLTGKKFIPGKLLESDQLRKQSSSLSNKGFLMWFAIICCIFYLIFHRSHIIRRRFSGLYNITKDFKTGIRRRLKFLRRSDPFSRLEEGELGTDVDGFKDVYRMKSSSMFDLGKSSATMQREHEPQRTASQSANLAPSNLRPAFSMADFSKFKDSRLYD",binds
2,"371-Ynd1 (Ynd1 with an N-terminal deletion of amino acids 1-370) (domain or fragment, UniProt P40009 371-630) NWTQILANSDKGVYNSIPENFLKDACFKGNWVLNILHEGFDMPRIDVDAENVNDRPLFQSVEKVEERELSWTLGRILLYASGSILAGNDDFMVGIAPSERRTKLTGKKFIPGKLLESDQLRKQSSSLSNKGFLMWFAIICCIFYLIFHRSHIIRRRFSGLYNITKDFKTGIRRRLKFLRRSDPFSRLEEGELGTDVDGFKDVYRMKSSSMFDLGKSSATMQREHEPQRTASQSANLAPSNLRPAFSMADFSKFKDSRLYD",binds
3,"468-Ynd1 (Ynd1 with an N-terminal deletion of amino acids 1-467) (domain or fragment, UniProt P40009 468-630) SERRTKLTGKKFIPGKLLESDQLRKQSSSLSNKGFLMWFAIICCIFYLIFHRSHIIRRRFSGLYNITKDFKTGIRRRLKFLRRSDPFSRLEEGELGTDVDGFKDVYRMKSSSMFDLGKSSATMQREHEPQRTASQSANLAPSNLRPAFSMADFSKFKDSRLYD",binds
4,"518-Ynd1 (cytosolic tail of Ynd1, amino acids 518-630) (domain or fragment, UniProt P40009 518-630) HRSHIIRRRFSGLYNITKDFKTGIRRRLKFLRRSDPFSRLEEGELGTDVDGFKDVYRMKSSSMFDLGKSSATMQREHEPQRTASQSANLAPSNLRPAFSMADFSKFKDSRLYD",binds
5,"371-Ynd1-531 (Ynd1 lacking the N-terminal 370 residues and the C-terminal 99 amino acids) (domain or fragment, UniProt P40009 371-531) NWTQILANSDKGVYNSIPENFLKDACFKGNWVLNILHEGFDMPRIDVDAENVNDRPLFQSVEKVEERELSWTLGRILLYASGSILAGNDDFMVGIAPSERRTKLTGKKFIPGKLLESDQLRKQSSSLSNKGFLMWFAIICCIFYLIFHRSHIIRRRFSGLY",binds weakly
6,"468-Ynd1-531 (Ynd1 lacking the N-terminal 467 residues and the C-terminal 99 amino acids) (domain or fragment, UniProt P40009 468-531) SERRTKLTGKKFIPGKLLESDQLRKQSSSLSNKGFLMWFAIICCIFYLIFHRSHIIRRRFSGLY",binds weakly

# These are yes or no findings as the source states them, for the method shown. In cells and extracts the contact can be indirect. Binding calls can cover weak binding; strength is not graded here. Where a sequence is shown, tags or fusion partners need not be part of it.
